Assay results

Data taken from PubChem BioAssay AID1224904, deposited by Broad Institute (2016).

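Selective DUX4 reporter inhibition in doxycycline-induced 293T-iDUX4 cells, scored as Gaussia percent activity minus Italica percent activity, after a 24-hour treatment.
The test concentration is not given here.
Percent difference between the Gaussia and Italica channels; more negative values mean more selective suppression of the DUX4 reporter, and higher values mean less activity.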

Values are in %.
The controls that fix the scale are not given here.
Common to all entries: measured here: selective DUX4 reporter inhibition.
Part of the compounds only, not a random draw; the main read-out is not listed here.

compound	Gaussia minus Italica difference (%)
O=C(c1ccc2c(c1)OCO2)N1CCCCN2[C@H](C1)[C@@H](c1ccc(-c3ccccc3)cc1)[C@@H]2CO	-4.613
CCCNC(=O)N1CC[C@@H]2[C@@H](CO)N(C)c3ccc(C#Cc4ccccc4F)cc3[C@@H]21	-16.28
O=C(Cc1ccccc1)N1CC2(C1)[C@H](c1ccccc1)[C@H](CO)N2S(=O)(=O)Cc1ccccc1	0.6959
N#Cc1ccc(-c2ccc([C@@H]3[C@@H]4CN(S(=O)(=O)Cc5ccccc5)C[C@H]3N4)cc2)cc1	1.668
COc1ccc2c3c([nH]c2c1)[C@@H](CO)N(Cc1ccccc1F)CC31CN(C(=O)C2CCCC2)C1	-22.68
COc1ccc2c3c(n(C)c2c1)[C@H](CO)N(S(=O)(=O)c1ccc(C)cc1)CC31CN(C(=O)c2ccccn2)C1	-13.49
O=C(Nc1ccccc1)N1CC(=O)N2[C@@H](CO)[C@@H](c3ccc(C#CC4CCCCC4)cc3)[C@@H]2C1	-3.442
CS(=O)(=O)Nc1ccc2c(c1)[C@@H]1C[C@@H](CC(=O)NCc3ccc(Oc4ccccc4)cc3)O[C@H](CO)[C@@H]1O2	-8.038
CN(C)C(=O)c1ccc(-c2ccc3c(c2)[C@@H]2[C@@H](CCN2C(=O)c2ccccc2F)[C@@H](CO)N3)cc1	-3.01
O=C(C1CCC1)N1CC2(C1)[C@H](c1ccccc1)[C@@H](CO)N2Cc1ccccc1F	-23.25
COc1ccc2c3c(n(C)c2c1)[C@H](CO)NCC31CCN(C(=O)Nc2ccc3c(c2)OCO3)CC1	-9.396
COc1cccc(S(=O)(=O)N2CC[C@H]3[C@H](CO)Nc4ccc(-c5ccc(C#N)cc5)cc4[C@H]32)c1	-5.749
COc1cccc(S(=O)(=O)Nc2ccc3c(c2)[C@@H]2C[C@H](CC(=O)NCCc4ccccc4)O[C@@H](CO)[C@@H]2O3)c1	-1.397
COc1ccc2c3c([nH]c2c1)[C@@H](CO)N(C)CC31CCN(C(=O)c2ccccc2F)CC1	2.833
O=C(C[C@H]1CC[C@H]2[C@@H](COC[C@H](O)CN2S(=O)(=O)c2ccccc2)O1)NCc1ccc(-c2ccccc2)cc1	-8.903
CCc1cnc(N2[C@H](C#N)[C@@H](c3ccccc3C3=CCCC3)[C@@H]2CO)s1	-7.442
COc1ccc(C#Cc2ccc([C@H]3[C@@H](CO)N4CCCCN(C(=O)Nc5ccccc5F)C[C@@H]34)cc2)cc1	-16.41
O=C(Nc1cc(F)ccc1F)N1CCCCN2[C@H](CO)[C@H](c3ccc(C4=CCCCC4)cc3)[C@@H]2C1	-11.65
COc1cccc(-c2ccc3c(c2)[C@@H]2[C@@H](CCN2S(=O)(=O)c2ccc(F)cc2)[C@@H](CO)N3C)c1	6.142
COC(=O)[C@H]1[C@H](CO)[C@H]2Cn3c(ccc(-c4ccccc4)c3=O)[C@H]2N1CC1CCCCC1	-1.504
O=C(NCC(F)(F)F)[C@H]1[C@H](CO)[C@H]2Cn3c(cccc3=O)[C@@H]1N2C(=O)C1CCCC1	-3.651
O=C(C[C@@H]1C=C[C@@H](NS(=O)(=O)c2ccc(F)cc2)[C@H](CO)O1)N1CCc2ccccc2C1	-7.079
COc1ccc(S(=O)(=O)N2CCC3(CC2)CN(C(=O)CN(C)C)[C@@H](CO)c2c3c3ccc(OC)cc3n2C)cc1	20.11
Cn1cnc(S(=O)(=O)N2CCCCN3[C@H](CO)[C@@H](c4ccc(C#CC5CCCC5)cc4)[C@@H]3C2)c1	-7.799
O=C(C[C@H]1CC[C@@H]2[C@H](COC[C@H](O)CN2Cc2ccccc2F)O1)N[C@@H]1CCN(Cc2ccccc2)C1	-12.67
COc1cccc(CN2C[C@@H]3N[C@H](C2)C3c2ccc(-c3ccccc3OC)cc2)c1 (some centres not stated)	-21.5
Cc1cccc(S(=O)(=O)N2CCCCN3[C@H](C2)[C@H](c2ccc(-c4ccncc4)cc2)[C@@H]3CO)c1	2.468
C[C@H](CO)N1C[C@H](C)[C@@H](CN(C)S(=O)(=O)c2cccc(F)c2)OCc2ccccc2-c2c(n(C)c3ccccc23)C1=O	-23.14
COc1ccc2c3c([nH]c2c1)[C@@H](CO)N(C(=O)Nc1ccc(F)cc1)CC31CN(S(=O)(=O)c2ccc(C)cc2)C1	9.282
C/C=C/c1ccc([C@@H]2[C@H](CO)N(CC3CCCC3)C23CN(C(=O)COC)C3)cc1	-9.262
COc1ccc2c3c(n(C)c2c1)[C@@H](CO)NCC31CN(S(=O)(=O)c2cccc(C)c2)C1	-14.05
N#Cc1ccc(-c2ccc3c(c2)[C@H]2[C@H](CCN2Cc2cncnc2)[C@H](CO)N3)cc1	-11.7
N#Cc1ccc(-c2ccc(C3[C@@H]4CN(C(=O)C5CCOCC5)C[C@H]3N4)cc2)cc1 (some centres not stated)	-20.29
N#C[C@@H]1[C@H](c2ccccc2C2=CCCCC2)[C@@H](CO)N1S(=O)(=O)c1ccccc1	-3.68
Cc1ccc(-c2ccc([C@H]3[C@H](CO)N4CCCCN(S(=O)(=O)c5ccccc5C)C[C@@H]34)cc2)cc1	-21.86
CN1c2ccc(-c3ccc(F)cc3)cc2[C@H]2[C@H](CCN2S(=O)(=O)c2cccc(F)c2)[C@H]1CO	21.75
CN(C)C(=O)c1cccc(-c2ccc3c(c2)[C@H]2[C@H](CCN2C(=O)Cc2ccccc2)[C@H](CO)N3)c1	9.267
O=S(=O)(c1ccc(F)cc1)N1CCCCN2[C@H](CO)[C@H](c3ccc(C#CC4CC4)cc3)[C@@H]2C1	-19.34
O=C(Nc1ccc(C(F)(F)F)cc1)Nc1ccc2c(c1)[C@H]1C[C@@H](CC(=O)N3CCc4ccccc4C3)O[C@H](CO)[C@H]1O2	1.97
CO[C@H]1CN(C)C(=O)c2ccc(NC(=O)c3cccc(Oc4ccccc4)c3)cc2OC[C@H](C)NC[C@@H]1C	2.958
CO[C@@H]1CN(C)C(=O)c2cc(NC(=O)C3CC3)ccc2OC[C@H](C)N(Cc2cc(F)ccc2F)C[C@@H]1C	-12.18
CCCNC(=O)N1CC2(CN(CC3CCCCC3)C2)c2c(n(C)c3cc(OC)ccc23)[C@@H]1CO	-10.43
Cc1ccccc1S(=O)(=O)N(C)C[C@H]1OCc2ccccc2-c2c(n(C)c3ccccc23)C(=O)N([C@H](C)CO)C[C@H]1C	-4.336
O=C(Nc1ccc(F)cc1)N1CCCCN2[C@H](C1)[C@@H](c1ccc(C#CC3CC3)cc1)[C@@H]2CO	-18.67
CN1c2ccc(-c3ccc(F)cc3)cc2[C@H]2[C@H](CCN2C(=O)c2ccncc2)[C@H]1CO	0.9525
COc1ccccc1NC(=O)N1C[C@H](O)COC[C@@H]2O[C@@H](CC(=O)N3CCC(Cc4ccccc4)CC3)CC[C@H]21	-6.498
C[C@@H]1CN([C@@H](C)CO)C(=O)c2c(c3ccccc3n2C)-c2ccccc2CO[C@H]1CN(C)CC1CCCCC1	-17.29
O=C1CN(S(=O)(=O)Cc2ccccc2)C[C@H]2[C@H](c3ccc(C#CCC4CCCC4)cc3)[C@@H](CO)N12	-9.449
O=S(=O)(Cc1ccccc1)N1CC2(C1)[C@H](c1ccccc1)[C@H](CO)N2CC1CCCC1	-8.821

4 of the entries, repeated:

compound	Gaussia minus Italica difference (%)
N#Cc1ccc(-c2ccc([C@@H]3[C@@H]4CN(S(=O)(=O)Cc5ccccc5)C[C@H]3N4)cc2)cc1	1.668
CCCNC(=O)N1CC[C@@H]2[C@@H](CO)N(C)c3ccc(C#Cc4ccccc4F)cc3[C@@H]21	-16.28
COc1ccc2c3c(n(C)c2c1)[C@H](CO)NCC31CCN(C(=O)Nc2ccc3c(c2)OCO3)CC1	-9.396
C[C@H](CO)N1C[C@H](C)[C@@H](CN(C)S(=O)(=O)c2cccc(F)c2)OCc2ccccc2-c2c(n(C)c3ccccc23)C1=O	-23.14